Data on 42 compounds can be found in the supplement of paper PMC7858590.

± gives the standard deviation of the averaged measurements. Over roughly 3,800 compounds, “cell shape (eccentricity) Z-score vs DMSO control” has its median near 1.1; the lowest 2% begin near -4.7. The list shows a part of the results.

This assay relates to human monocyte-derived macrophages (M0). The experiment in a line: cell shape (eccentricity) Z-score vs DMSO control; higher = more elongated, M2-like morphology. The note with it: 20 µM; 24 h; macrophage state: M0 (M-CSF).
Turning to `Cc1onc(C(=O)N2CCN(C(c3ccc(Cl)cc3)c3ccc(Cl)cc3)CC2)c1[N+](=O)[O-]`, the “cell shape (Z-score)” value is -0.965.

`COc1ccc(/C=C/C(=O)O[C@H]2[C@H](O[C@H]3[C@@H]4C=CO[C@@H](O[C@@H]5O[C@H](CO)[C@@H](O)[C@H](O)[C@H]5O)[C@@H]4[C@@]4(CO)O[C@@H]34)O[C@@H](C)[C@H](O)[C@H]2OC(C)=O)cc1`: the “cell shape (Z-score)” value turned out to be 0.694 ± 0.82.

For the compound `CCC(C)n1ncn(-c2ccc(N3CCN(c4ccc(OC[C@H]5CO[C@](Cn6cncn6)(c6ccc(Cl)cc6Cl)O5)cc4)CC3)cc2)c1=O` (some centres not stated), the “cell shape (Z-score)” value is 0.541.

Regarding `OC[C@H]1O[C@@H](OCc2ccccc2)[C@H](O)[C@@H](O)[C@@H]1O`, the “cell shape (Z-score)” value was found to be 2.86.

As for H-RKDVY-OH, the “cell shape (Z-score)” value is 1.52.

As for `O=C(c1ccccc1)c1ccc2n1CCC2C(=O)O` (configuration not stated), the “cell shape (Z-score)” value is 0.0328.

On to `c1ccc(N2CCN(Cc3nc4ccccc4[nH]3)CC2)nc1`, for which the “cell shape (Z-score)” value is -0.725.

In the case of `COC(=O)C1=CO[C@@H](OC2OC(O)C(O)C(O)C2CO)[C@H]2[C@@H]1C=CC21C=C([C@H](C)OC(=O)/C=C/c2ccc(OC3OC(CO)C(O)C(O)C3O)cc2)C(=O)O1` (some centres not stated), the “cell shape (Z-score)” value was -0.889.

In the case of `CCCCCCCCCCCCC/C=C/[C@@H](O)[C@H](CO)NC(=O)CCCCC`, the “cell shape (Z-score)” value was 0.547.

In the case of `O=c1cc(-c2ccccc2)oc2cccc(O)c12`, the “cell shape (Z-score)” value was -0.394.

Consider `C[C@@H]1CC[C@]2(C(=O)O[C@@H]3O[C@H](CO)[C@@H](O)[C@H](O)[C@H]3O)CC[C@]3(C)C(=CCC4[C@@]5(C)C[C@@H](O)[C@H](O)C(C)(C)C5CC[C@]43C)C2[C@]1(C)O` (some centres not stated), for which the “cell shape (Z-score)” value turned out to be 2.93.

In the case of `CC1(C)CCC(c2ccc(Cl)cc2)=C(CN2CCN(c3ccc(C(=O)NS(=O)(=O)c4ccc(N[C@H](CCN5CCOCC5)CSc5ccccc5)c(S(=O)(=O)C(F)(F)F)c4)cc3)CC2)C1`, the “cell shape (Z-score)” value is 5.63.

For `C=CC1=C(C)c2cc3[nH]c(cc4nc(cc5[nH]c(cc1n2)c(C)c5CCC(=O)O)C(CCC(=O)O)=C4C)c(C)c3C=C`, the “cell shape (Z-score)” value was determined as 0.722.

Take `C=C1C(=O)O[C@@H]2C[C@H](C)C3C[C@H](O)[C@H](O)[C@@]3(C)C[C@H]12` (some centres not stated): the “cell shape (Z-score)” value is -2.78 ± 0.67.

On to `CC(=O)C(O)(C(=O)OCc1ccc(O[C@@H]2O[C@H](CO)[C@@H](O)[C@H](O)[C@H]2O)cc1)C(C)C` (some centres not stated), for which the “cell shape (Z-score)” value was 1.38.

Take `O=C(O)c1ccc2cc(-c3ccc(O)c(C45CC6CC(CC(C6)C4)C5)c3)ccc2c1`: the “cell shape (Z-score)” value is 4.58.

On to `COC(=O)C1=C(C)NC(C)=C(C(=O)OCC(C)C)C1c1ccccc1[N+](=O)[O-]` (configuration not stated), for which the “cell shape (Z-score)” value amounted to 1.98.

As for `O=C(NCCO[N+](=O)[O-])c1cccnc1`, the “cell shape (Z-score)” value is 0.999.

Consider `C[C@H]1O[C@@H](O[C@H]2CC[C@@]3(C)C(CC[C@]4(C)C3CC=C3C5CC(C)(C)CC[C@]5(C(=O)O)CC[C@]34C(=O)O)C2(C)C)[C@H](O)[C@@H](O)[C@H]1O` (some centres not stated), for which the “cell shape (Z-score)” value is -1.07.

Regarding `COc1ccc2c(c1)O[C@@H]1COc3cc4c(cc3[C@]1(O)C2=O)OCO4`, the “cell shape (Z-score)” value was -2.32.

With `CC(C)n1cnc2c(NCc3ccccc3O)nc(NCCCO)nc21`, the “cell shape (Z-score)” value was determined as 3.13.

With `C[C@@H]1O[C@@H](O[C@H]2[C@H](O[C@H]3CC[C@@]4(C)C(CC[C@]5(C)C4CC=C4C6CC(C)(C)CC[C@]6(C(=O)O[C@@H]6O[C@H](CO[C@@H]7O[C@H](CO)[C@@H](O[C@@H]8O[C@@H](C)[C@H](O)[C@@H](O)[C@H]8O)[C@H](O)[C@H]7O)[C@@H](O)[C@H](O)[C@H]6O)CC[C@]45C)C3(C)C)OC[C@H](O)[C@@H]2O)[C@H](O)[C@H](O)[C@H]1O` (some centres not stated), the “cell shape (Z-score)” value is -0.243 ± 0.75.

As for `CCc1ccc(C(=O)C(C)CN2CCCCC2)cc1` (configuration not stated), the “cell shape (Z-score)” value was found to be 0.247.

On to `CC(=O)OC1CCC(C)(O)C2OC(CC1(C)O)C(C(C)C)C2OC(=O)/C=C/c1ccccc1` (configuration not stated), for which the “cell shape (Z-score)” value was -1.36.

On to `C[C@]12CCC3c4ccc(O)cc4CCC3C1C[C@@H](O)[C@@H]2O` (some centres not stated), for which the “cell shape (Z-score)” value came to 2.3.

With `NS(=O)(=O)c1cc2c(cc1C(F)(F)F)NC(Cc1ccccc1)NS2(=O)=O` (configuration not stated), the “cell shape (Z-score)” value amounted to 1.7.

As to `COc1ccc(-c2oc3c(CC=C(C)C)c(O[C@@H]4O[C@H](CO)[C@@H](O)[C@H](O)[C@H]4O)cc(O)c3c(=O)c2O[C@@H]2O[C@@H](C)[C@H](O)[C@@H](O)[C@H]2O)cc1`, the “cell shape (Z-score)” value was -2.65.

Consider `CC(C)C1NC(=O)/C(=C/c2cnc[nH]2)NC1=O` (configuration not stated), for which the “cell shape (Z-score)” value was -0.366.

On to `CCN(CCO)CCCC(C)Nc1ccnc2cc(Cl)ccc12` (configuration not stated), for which the “cell shape (Z-score)” value is 0.0103.

Take `O=C(O)CCc1c(C(=O)O)[nH]c2cc(Cl)cc(Cl)c12`: the “cell shape (Z-score)” value worked out at 1.64.

As to `O=C(O)Cn1c(C(=O)Nc2nc(-c3ccccc3Cl)cs2)cc2ccccc21`, the “cell shape (Z-score)” value is 2.41.

On to `COC(=O)Nc1nc2ccc(C(=O)c3ccccc3)cc2[nH]1`, for which the “cell shape (Z-score)” value worked out at 0.369.

With `CS(=O)(=O)CCNCc1nc(-c2ccc3ncnc(Nc4ccc(OCc5cccc(F)c5)c(Cl)c4)c3c2)cs1`, the “cell shape (Z-score)” value is -2.15.

As for `COc1ccc(C(=O)Nc2sc3c(c2C(N)=O)CCCC3)cc1OC`, the “cell shape (Z-score)” value was -0.0146.

For the compound `Cc1cc(=O)oc2c(O)c(O)ccc12`, the “cell shape (Z-score)” value worked out at 1.41.

For the compound `COC(=O)c1ccc2c(c1)NC(=O)/C2=C(\Nc1ccc(N(C)C(=O)CN2CCN(C)CC2)cc1)c1ccccc1`, the “cell shape (Z-score)” value was found to be 1.75.

On to `CC1CCC2C(C)(C)C(=O)CC[C@]2(C)C12Cc1c(O)cc3c(c1O2)CN(C(CCC(=O)O)C(=O)O)C3=O` (some centres not stated), for which the “cell shape (Z-score)” value turned out to be 0.0904.

As to `N=C(N)NC(=N)N1CCOCC1`, the “cell shape (Z-score)” value came out at 4.12.

Consider `CN1C[C@H]2C[C@@H]1CN2c1cc2c(cc1F)c(=O)c(C(=O)O)cn2C1CC1`, for which the “cell shape (Z-score)” value was -1.92.

In the case of `CC(=O)Nc1ccc(C(=O)Nc2cc(-c3cccs3)ccc2N)cc1`, the “cell shape (Z-score)” value turned out to be 1.99.

Turning to `CC(=O)OCC(=O)[C@@]1(O)CCC2C3CCC4=CC(=O)CC[C@]4(C)[C@@]3(F)[C@@H](O)C[C@@]21C` (some centres not stated), the “cell shape (Z-score)” value was -0.889.

On to `CCN1CCN(CC(=O)Nc2ccc(-c3cccc4c(=O)cc(N5CCOCC5)oc34)c3sc4ccccc4c23)CC1`, for which the “cell shape (Z-score)” value was -1.47.
